# The other results are listed elsewhere or left out.
# Experiments:
# Assay in all cases: glycan array binding signal (z-score within array); higher = stronger binding
# Conditions in all cases: glycan notation: IUPAC condensed, linker removed
# Man(b1-4)GlcNAc = molecular target: Man(b1-4)GlcNAc
# Method in brief: (§1)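 The binding signal is a Z-score computed within each array. Data were drawn from 3228 arrays in the Consortium for Functional Glycomics database, restricted to those with a known protein sequence. Scores were averaged over arrays of the same protein sequence at different concentrations or buffers, and over linkers, and negative values can be taken as non-binding.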
# Neu5Ac(a2-3)Gal = molecular target: Neu5Ac(a2-3)Gal
# Method in brief: as §1
# [1] = molecular target: Neu5Ac(a2-3)Gal(b1-3)GalNAc
# Method in brief: as §1
# [2] = molecular target: Neu5Ac(a2-3)Gal(b1-3)GalNAc(b1-3)Gal(a1-4)Gal(b1-4)Glc
# Method in brief: as §1
# [3] = molecular target: Neu5Ac(a2-3)Gal(b1-3)GalNAc(b1-4)[Neu5Ac(a2-3)]Gal(b1-4)Glc
# Method in brief: as §1
# [4] = molecular target: Neu5Ac(a2-3)Gal(b1-3)GalNAc6S
# Method in brief: as §1
# [5] = molecular target: Neu5Ac(a2-3)Gal(b1-3)GlcNAc
# Method in brief: as §1
# [6] = molecular target: Neu5Ac(a2-3)Gal(b1-3)GlcNAc(b1-2)Man(a1-3)[Neu5Ac(a2-3)Gal(b1-3)GlcNAc(b1-2)Man(a1-6)]Man(b1-4)GlcNAc(b1-4)GlcNAc
# Method in brief: as §1
# [7] = molecular target: Neu5Ac(a2-3)Gal(b1-3)GlcNAc(b1-3)Gal(b1-3)GlcNAc
# Method in brief: as §1
# [8] = molecular target: Neu5Ac(a2-3)Gal(b1-3)GlcNAc(b1-3)Gal(b1-4)GlcNAc
# Method in brief: as §1
# [9] = molecular target: Neu5Ac(a2-3)Gal(b1-3)GlcNAc(b1-3)GalNAc
# Method in brief: as §1
# [10] = molecular target: Neu5Ac(a2-3)Gal(b1-3)GlcNAc6S
# Method in brief: as §1
# [11] = molecular target: Neu5Ac(a2-3)Gal(b1-3)[Fuc(a1-4)]GlcNAc
# Method in brief: as §1
# [12] = molecular target: Neu5Ac(a2-3)Gal(b1-3)[Fuc(a1-4)]GlcNAc(b1-3)Gal(b1-3)[Fuc(a1-4)]GlcNAc
# Method in brief: as §1
# [13] = molecular target: Neu5Ac(a2-3)Gal(b1-3)[Fuc(a1-4)]GlcNAc(b1-3)Gal(b1-4)[Fuc(a1-3)]GlcNAc
# Method in brief: as §1
# [14] = molecular target: Neu5Ac(a2-3)Gal(b1-3)[Neu5Ac(a2-3)Gal(b1-4)]GlcNAc
# Method in brief: as §1
# [15] = molecular target: Neu5Ac(a2-3)Gal(b1-3)[Neu5Ac(a2-6)]GalNAc
# Method in brief: as §1
# Neu5Ac(a2-3)Gal(b1-4)Glc = molecular target: Neu5Ac(a2-3)Gal(b1-4)Glc
# Method in brief: as §1
# [16] = molecular target: Neu5Ac(a2-3)Gal(b1-4)GlcNAc
# Method in brief: as §1
# [17] = molecular target: Neu5Ac(a2-3)Gal(b1-4)GlcNAc(b1-2)Man(a1-3)[GlcNAc(b1-2)Man(b1-4)GlcNAc(b1-2)Man(a1-6)]Man(b1-4)GlcNAc(b1-4)GlcNAc
# Method in brief: as §1
# [18] = molecular target: Neu5Ac(a2-3)Gal(b1-4)GlcNAc(b1-2)Man(a1-3)[Neu5Ac(a2-6)Gal(b1-4)GlcNAc(b1-2)Man(a1-6)]Man(b1-4)GlcNAc(b1-4)GlcNAc
# Method in brief: as §1
# [19] = molecular target: Neu5Ac(a2-3)Gal(b1-4)GlcNAc(b1-3)Gal(b1-3)GlcNAc
# Method in brief: as §1
# [20] = molecular target: Neu5Ac(a2-3)Gal(b1-4)GlcNAc(b1-3)Gal(b1-4)GlcNAc
# Method in brief: as §1
# [21] = molecular target: Neu5Ac(a2-3)Gal(b1-4)GlcNAc(b1-3)Gal(b1-4)GlcNAc(b1-3)Gal(b1-4)GlcNAc
# Method in brief: as §1
# [22] = molecular target: Neu5Ac(a2-3)Gal(b1-4)GlcNAc(b1-3)Gal(b1-4)[Fuc(a1-3)]GlcNAc
# Method in brief: as §1
# [23] = molecular target: Neu5Ac(a2-3)Gal(b1-4)GlcNAc(b1-3)GalNAc
# Method in brief: as §1
# [24] = molecular target: Neu5Ac(a2-3)Gal(b1-4)GlcNAc(b1-6)[Gal(b1-3)]GalNAc
# Method in brief: as §1
# [25] = molecular target: Neu5Ac(a2-3)Gal(b1-4)GlcNAc(b1-6)[Neu5Ac(a2-3)Gal(b1-3)]GalNAc
# Method in brief: as §1
# [26] = molecular target: Neu5Ac(a2-3)Gal(b1-4)GlcNAc6S
# Method in brief: as §1
# [27] = molecular target: Neu5Ac(a2-3)Gal(b1-4)[Fuc(a1-3)]GlcNAc
# Method in brief: as §1
# [28] = molecular target: Neu5Ac(a2-3)Gal(b1-4)[Fuc(a1-3)]GlcNAc(b1-3)Gal
# Method in brief: as §1
# [29] = molecular target: Neu5Ac(a2-3)Gal(b1-4)[Fuc(a1-3)]GlcNAc(b1-3)Gal(b1-4)GlcNAc
# Method in brief: as §1
# [30] = molecular target: Neu5Ac(a2-3)Gal(b1-4)[Fuc(a1-3)]GlcNAc(b1-3)Gal(b1-4)[Fuc(a1-3)]GlcNAc(b1-3)Gal(b1-4)[Fuc(a1-3)]GlcNAc
# Method in brief: as §1
# [31] = molecular target: Neu5Ac(a2-3)Gal(b1-4)[Fuc(a1-3)]GlcNAc(b1-3)GalNAc
# Method in brief: as §1
# [32] = molecular target: Neu5Ac(a2-3)Gal(b1-4)[Fuc(a1-3)]GlcNAc(b1-6)[Gal(b1-3)]GalNAc
# Method in brief: as §1
# [33] = molecular target: Neu5Ac(a2-3)Gal(b1-4)[Fuc(a1-3)]GlcNAc(b1-6)[Neu5Ac(a2-3)Gal(b1-3)]GalNAc
# Method in brief: as §1
# [34] = molecular target: Neu5Ac(a2-3)Gal(b1-4)[Fuc(a1-3)]GlcNAc6S
# Method in brief: as §1
# [35] = molecular target: Neu5Ac(a2-3)Gal6S(b1-4)GlcNAc
# Method in brief: as §1
binder,measurement,setting,value
"SRS2 (Toxoplasma gondii), O15695 (protein) MATRASLARQKTGAACLAVLTASPSVVAAKPWKRWVGVSVILASAFAVGVSAGPPYRYEPEKFTCRPKKGILSQWVSLLYQVQHNITFACEEATPVPTTLISEEHGLMVCAENMTPEECEANPAPLSAFLPGATKEWVTGDSVLTGLKISVPESQYPANAKSFRVGCRHNTKTGNTCMLTIHVEPRDPAVERQEARCSYTENSTLPKIFVTKDSNTMTLACGPHGAPMPESYTENYCSTPDTCDEKPFTSVIPGYLSKWFFGDPKSPLGARVRIPPEQIPSSPQINYFGCTGPTEGEGPKYNCTVPVPLGGGDPSEGSRPGGGSGGGKRGGGQGGGGSLAGFDFRQGSARHSLPSRMALSASALLAMTALAY",glycan array binding signal (z-score),Man(b1-4)GlcNAc,0.435
same,glycan array binding signal (z-score),Neu5Ac(a2-3)Gal,1.06
same,glycan array binding signal (z-score),[1],-0.48
same,glycan array binding signal (z-score),[2],-0.145
same,glycan array binding signal (z-score),[3],0.576
same,glycan array binding signal (z-score),[4],-0.649
same,glycan array binding signal (z-score),[5],0.115
same,glycan array binding signal (z-score),[6],-0.553
same,glycan array binding signal (z-score),[7],0.425
same,glycan array binding signal (z-score),[8],-0.981
same,glycan array binding signal (z-score),[9],1.3
same,glycan array binding signal (z-score),[10],0.196
same,glycan array binding signal (z-score),[11],-0.942
same,glycan array binding signal (z-score),[12],0.672
same,glycan array binding signal (z-score),[13],-0.397
same,glycan array binding signal (z-score),[14],-0.114
same,glycan array binding signal (z-score),[15],0.2
same,glycan array binding signal (z-score),Neu5Ac(a2-3)Gal(b1-4)Glc,0.598
same,glycan array binding signal (z-score),[16],-0.77
same,glycan array binding signal (z-score),[17],-0.779
same,glycan array binding signal (z-score),[18],0.714
same,glycan array binding signal (z-score),[19],-0.277
same,glycan array binding signal (z-score),[20],0.883
same,glycan array binding signal (z-score),[21],-0.7
same,glycan array binding signal (z-score),[22],-0.567
same,glycan array binding signal (z-score),[23],0.218
same,glycan array binding signal (z-score),[24],-0.432
same,glycan array binding signal (z-score),[25],0.927
same,glycan array binding signal (z-score),[26],0.45
same,glycan array binding signal (z-score),[27],0.656
same,glycan array binding signal (z-score),[28],-0.177
same,glycan array binding signal (z-score),[29],0.995
same,glycan array binding signal (z-score),[30],-0.426
same,glycan array binding signal (z-score),[31],1.72
same,glycan array binding signal (z-score),[32],-0.677
same,glycan array binding signal (z-score),[33],-0.245
same,glycan array binding signal (z-score),[34],-0.329
same,glycan array binding signal (z-score),[35],1.17

# 3 entries picked at random from those above:
binder,measurement,setting,value
"SRS2 (Toxoplasma gondii), O15695 (protein) MATRASLARQKTGAACLAVLTASPSVVAAKPWKRWVGVSVILASAFAVGVSAGPPYRYEPEKFTCRPKKGILSQWVSLLYQVQHNITFACEEATPVPTTLISEEHGLMVCAENMTPEECEANPAPLSAFLPGATKEWVTGDSVLTGLKISVPESQYPANAKSFRVGCRHNTKTGNTCMLTIHVEPRDPAVERQEARCSYTENSTLPKIFVTKDSNTMTLACGPHGAPMPESYTENYCSTPDTCDEKPFTSVIPGYLSKWFFGDPKSPLGARVRIPPEQIPSSPQINYFGCTGPTEGEGPKYNCTVPVPLGGGDPSEGSRPGGGSGGGKRGGGQGGGGSLAGFDFRQGSARHSLPSRMALSASALLAMTALAY",glycan array binding signal (z-score),[27],0.656
same,glycan array binding signal (z-score),[15],0.2
same,glycan array binding signal (z-score),Neu5Ac(a2-3)Gal(b1-4)Glc,0.598

# Reference: the supplement of paper PMC8728848
